Binding result and Kd data for three sequences are collected here from paper doi:10.1101/2025.03.12.642038.

For data set [1], the target named is T1, IRF4 DBD C99R (Homo sapiens) (UniProt Q15306).
T1 sequence (looked up): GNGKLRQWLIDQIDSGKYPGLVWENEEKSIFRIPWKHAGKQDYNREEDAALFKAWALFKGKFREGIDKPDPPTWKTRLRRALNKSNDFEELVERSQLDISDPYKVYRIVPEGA
Nature of the data set: SPR. As to conditions: max response ~5 RU; residues 20-132.

The target of data set [2] is T2, IRF4 DBD wild-type (Homo sapiens) (UniProt Q15306).
T2 sequence (looked up): T1 sequence (looked up) with R80C
Nature of the data set: SPR. As to conditions: negligible binding; residues 20-132.

Data set [3] addresses T3, IRF4 DBD R98A/C99A (Homo sapiens) (UniProt Q15306).
T3 sequence (looked up): T1 sequence (looked up) with R79A, R80A
Nature of the data set: FP. As to conditions: residues 20-132.

Data set [4] concerns the target T4, IRF4 DBD R98A (Homo sapiens) (UniProt Q15306).
T4 sequence (looked up): T1 sequence (looked up) with R79A, R80C
Nature of the data set: FP. The following applies: residues 20-132.

For data set [5], the target named is T3, IRF4 DBD R98A/C99A (Homo sapiens). Nature of the data set: SPR two-state kinetic. The following applies: residues 20-132.
For data set [6], the target named is T4, IRF4 DBD R98A (Homo sapiens). Nature of the data set: SPR two-state kinetic. As to conditions: residues 20-132.
The target in data set [7] is T3, IRF4 DBD R98A/C99A (Homo sapiens). Nature of the data set: SPR steady state. The following applies: residues 20-132.
For data set [8], the target named is T4, IRF4 DBD R98A (Homo sapiens). Nature of the data set: SPR steady state. The following applies: residues 20-132.

Residue numbers refer to the chain shown, from its start. For some assays here: No signal at the amounts used counts as a negative. For some assays here: At least one verdict was read from the data and is not stated in words by the source. Where a protein sequence is shown, tags need not be part of it. For some assays here: The comparison behind a weaker result is the experiment's own reference, which may not be listed here.

As to “AAGCATACAGAGAGACGCATATATGCGTCTCTCTGTATGCTT [scrIRE hairpin (biotin)]”, the binding result in data set [1] was “binds more weakly”; in data set [2] it was “no binding”.
As for “CTTGGTTTCACTTCCTGCGTTTTCGCAGGAAGTGAAACCAAG [IRE hairpin (FAM)]”, the Kd in data set [3] and in data set [4] was more than 10 µM throughout.
For “CTTGGTTTCACTTCCTGCGTTTTCGCAGGAAGTGAAACCAAG [IRE hairpin (biotin)]”, the Kd in data set [5], in data set [6], in data set [7] and in data set [8] was more than 4.5 µM throughout.
